# Experimental data: PubChem BioAssay AID1347076 (National Center for Advancing Translational Sciences (NCATS), 2019)
# Out of some 400,000 compounds screened, about 13,000 (3.2%) were called active. This list was built around the results that the source calls inconclusive (neither active nor inactive); the mix of calls is not that of the screen. Calls follow the shape of the dose curve; as a rule, active = well fitted cell-killing curve with a large enough effect; inconclusive = small, poorly fitted or top-dose-only effect, or effect the other way; inactive = flat fitted curve, though single readings scatter. Potencies beside an inconclusive call are fits to weak or partial responses and may not hold up.
# Test: qHTS assay for MDR1-selective chemotherapeutics: Primary screen using the drug-selected MDR subline cells KB-V1; also: nearly all actives have a fitted effect of over 60% in size
# Details: KB-V1 MDR cells viability, CellTiter-Glo, 72 h; activity change, negative = cytotoxicity: at 46.1 µM (top of the series)
# In short: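 Drug-selected KB-V1 cells, grown in DMEM lacking phenol red with 10% FBS, receive compound titrations; after three days at 37 degrees C, surviving cell ATP is quantified by CellTiter-Glo luminescence and responses normalized and curve-fitted.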
# % is scaled to controls: 0 for no effect and ±100 for the full control effect; potency is read from the fitted curve at half-maximal effect.
Structure (SMILES),"activity change, negative = cytotoxicity",Potency
COC(=O)C1CCN(C(=O)c2cc(-c3ccco3)nc3ccccc23)CC1,inactive: -0.947%,–
COc1cccc(NC(=O)C2CCN(S(=O)(=O)c3ccc4c(c3)OCCO4)CC2)c1,–,"inconclusive: 16.4 µM [cytotoxic, single point]"
CC1(C(=O)NS(=O)(=O)c2ccc(C#N)cc2)CCN1C(=O)CCC1CCCC1 (stereo unspecified),–,"inconclusive: 29.1 µM [rising, single point]"
CCN(CC)S(=O)(=O)c1cccc(NC(=O)CCSc2ccc(Cl)cc2)c1,–,"inconclusive: 18.4 µM [cytotoxic, single point]"
Cc1ccnc(NC(=O)C2CCCN(S(=O)(=O)c3ccc4[nH]c(=O)ccc4c3)C2)c1 (stereo unspecified),–,"inconclusive: 13 µM [rising, single point]"
Oc1ccccc1C1=NN(c2ccccc2)C(c2ccc(F)cc2)C1 (stereo unspecified),inactive: -2.43%,–
CC(NC(=O)c1ccco1)C(=O)N1CCN(S(=O)(=O)c2ccccc2C#N)CC1 (stereo unspecified),–,"inconclusive: 18.4 µM [rising, single point]"
COc1cc(/C=N/NC(=O)c2cc[n+]([O-])cc2)ccc1O,inactive: -8.11%,–
Cc1ccc(C(=O)OCC(=O)N2CCCCCC2)cc1S(=O)(=O)N1CCOCC1,–,active: 14.6 µM
NC(=O)c1cc([N+](=O)[O-])ccc1NCc1ccccn1,–,"inconclusive: 18.4 µM [cytotoxic, partial curve]"
CCOP(=O)(OCC)C(Nc1cccc([N+](=O)[O-])c1)c1ccc(OC)cc1 (stereo unspecified),–,"inconclusive: 14.6 µM [cytotoxic, partial curve, poor fit]"
CCn1c(SCC(=O)Nc2ccc(OC)cc2)nc2c1c(=O)n(C)c(=O)n2C,–,"inconclusive: 9.2 µM [cytotoxic, partial curve]"
COc1cc(/C=C2\CCC(C3CCCC3)C2=O)cc(OC)c1OC (stereo unspecified),inactive: -11.6%,–
CCc1ccc(NC(=O)C/C(C)=N/NC(=O)COc2ccccc2C)cc1,–,"inconclusive: 1.64 µM [rising, full curve, poor fit]"
Cc1cc(C)c(-c2nnc(NC(=O)Nc3ccc4ccccc4c3)s2)c(C)c1,–,"inconclusive: 29.1 µM [cytotoxic, single point]"
CCCCCCCN1CCC(=O)N([C@H](CO)CC(C)C)CC1,inactive: -22.6%,–
Cc1ccc(C(=O)c2coc3c2C(=O)C(=O)c2ccccc2-3)cc1,–,"inconclusive: 20.6 µM [cytotoxic, single point]"
O=C(Nc1ccc(-c2nc3cccnc3s2)cc1)c1ccc(Br)o1,inactive: 4.63%,–
CC(=O)Oc1ccc(C(=O)Nc2cccc(NC(=O)c3ccco3)c2)cc1,inactive: -8.45%,–
N#CC1=C(S)N(c2ccccc2)C2(CCCCC2)NC1=O,inactive: 17.2%,–
Cc1ccc(-c2csc3ncnc(N4CCN(S(=O)(=O)c5cccs5)CC4)c23)cc1,–,"inconclusive: 18.4 µM [cytotoxic, partial curve, poor fit]"
CCc1ccc(NC(=O)C(=O)NCC(c2cccnc2)N2CCOCC2)cc1 (stereo unspecified),inactive: 0%,–
CCOC(=O)c1c(C)c(C(=O)NCc2ccc3c(c2)OCO3)c(C)n1C,–,active: 18.4 µM

Structure (SMILES),"activity change, negative = cytotoxicity",Potency
CC(=O)c1ccc(NC(=S)N2CCCC2)cc1,–,"inconclusive: 29.1 µM [rising, single point]"
O=C(c1cccc(F)c1)N1CCN(C(=O)c2cc(-c3ccc(Cl)cc3Cl)on2)CC1,–,"inconclusive: 29.1 µM [cytotoxic, single point]"
COc1ccc(NC(=O)Cc2csc(COc3cccc(C)c3)n2)c(OC)c1,inactive: 0.698%,–
Cc1ccccc1OCCC(=O)OCC(=O)NC(=O)c1ccccc1,inactive: 0%,–
Cc1ccc(S(=O)(=O)CCC(=O)Nc2nnc(-c3cccs3)o2)cc1,inactive: 0.744%,–
COCc1cccc(-c2csc(C(C)(O)c3ccccc3)n2)c1 (stereo unspecified),inactive: -1.67%,–
COc1ccc(CC(=O)Nc2ccc(-c3cn4ccccc4n3)cc2)cc1,inactive: 12%,–
COc1ccc(N2CCN(C(=O)CCS(=O)(=O)c3ccc(C)cc3)CC2)cc1,–,"inconclusive: 13 µM [cytotoxic, single point]"
COc1ccc(C2CC(c3cccs3)=NN2c2ccccc2)cc1 (stereo unspecified),–,"inconclusive: 18.4 µM [cytotoxic, partial curve, poor fit]"
CC(C)c1nn2c(=O)cc(COC(=O)CNC(=O)c3ccccc3)nc2s1,–,"inconclusive: 18.4 µM [rising, single point]"
COc1ccc(N2CCN(S(=O)(=O)c3ccc4c(c3)CC(=O)N4)CC2)cc1,–,"inconclusive: 44.7 µM [rising, partial curve]"
Nc1ccccc1-n1nc2ccc3ccccc3c2n1,inactive: -2.67%,–
CCN(CC)CCOC(c1ccccc1)c1ccc(C)cc1 (stereo unspecified),–,"inconclusive: 23.1 µM [cytotoxic, partial curve, poor fit]"
CC(=O)c1ccc(NC(=O)CSc2nc3[nH]ncc3c(=O)[nH]2)cc1,–,"inconclusive: 23.1 µM [rising, single point]"
CO/N=C(\c1nonc1N)N1CCN(c2ccc([N+](=O)[O-])cc2Cl)CC1,–,"inconclusive: 16.4 µM [cytotoxic, partial curve]"
CCn1cc(C(=O)N(C)Cc2ccccc2)c(=O)c2cc(S(=O)(=O)N3CCCCCC3)ccc21,inactive: 0%,–
c1ccc(-c2csc(CN3CCCCC3)n2)cc1,inactive: 15%,–
Cc1[nH]c2ccc(C(=O)N3CCN(c4cccc(Cl)c4)CC3)cc2c1C,–,"inconclusive: 32.6 µM [cytotoxic, single point]"
CCCN(CCC)CC(O)Cn1cc(/C=C/C(=O)c2ccc(OCC)cc2)c2ccccc21 (stereo unspecified),–,"inconclusive: 23.1 µM [cytotoxic, single point]"
O=C(COC(=O)CNC(=O)c1ccccc1F)Nc1ncc(Cl)cc1Cl,–,"inconclusive: 29.1 µM [rising, single point]"
COC(=O)c1ccccc1NC(=O)c1cnn2c1NC(=C1CC1)C=C2C(F)F,–,"inconclusive: 29.1 µM [cytotoxic, single point]"
CCOC(=O)c1[nH]c2ccc(OC)cc2c1NC(=O)c1ccc(OC)c(OC)c1,–,"inconclusive: 2.06 µM [cytotoxic, full curve]"
COc1cc(CNCc2ccccn2)ccc1OCc1ccccc1Cl,–,"inconclusive: 8.2 µM [cytotoxic, partial curve]"

# A stretch from further up, for reference:
Structure (SMILES),"activity change, negative = cytotoxicity",Potency
Cc1ccc(-c2csc3ncnc(N4CCN(S(=O)(=O)c5cccs5)CC4)c23)cc1,–,"inconclusive: 18.4 µM [cytotoxic, partial curve, poor fit]"
CCc1ccc(NC(=O)C(=O)NCC(c2cccnc2)N2CCOCC2)cc1 (stereo unspecified),inactive: 0%,–
CCOC(=O)c1c(C)c(C(=O)NCc2ccc3c(c2)OCO3)c(C)n1C,–,active: 18.4 µM
